Assay results from patent US20050164906A1 (APPLIED RESEARCH SYSTEMS ARS HOLDING N V, published 2005).
Changes are numbered by the printed parent chain. No constants are given. Whether binding was seen depends on the method and setting. Binding seen in cells or lysates may run through a third protein. Some results given as binding are weak or reduced against the parent protein; the word gives no strength. For some of these results: Tags and fused reporters may be left off the sequences shown. One block for each molecule: values may come before it.

Assays:
[1] = biological target: T1, GILZ, endogenous, in whole cell lysates of murine thymocytes (DEX-treated or untreated) (mouse) (UniProt Q9Z2S7); test: GST pull-down, Western blot
T1 sequence (looked up): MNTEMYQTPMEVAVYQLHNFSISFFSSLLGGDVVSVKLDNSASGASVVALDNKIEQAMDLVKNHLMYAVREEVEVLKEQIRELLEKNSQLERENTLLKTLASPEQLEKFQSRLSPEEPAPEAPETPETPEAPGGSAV

[2] = biological target: T1, GILZ, endogenous, in whole cell lysates of murine thymocytes (DEX-treated or untreated) (mouse); test: GST pull-down from thymocyte whole cell lysates (DEX treated or untreated), Western blot with α-GILZ
[3] = biological target: T2, N87A-GILZ, full mouse GILZ in which an Asparagine is mutated in Alanine, in vitro 35S-labeled (mouse) (UniProt Q9Z2S7); test: GST pull-down of in vitro 35S-labeled protein
T2 sequence ([35S]-Methionine label, looked up): T1 sequence (looked up) with N87A

[4] = biological target: T3, in vitro 35S-labeled full GILZ (full-length mouse GILZ, in vitro translated) (mouse) (UniProt Q9Z2S7); test: GST pull-down of in vitro 35S-labeled protein
T3 sequence ([35S]-Methionine label, looked up): T1 sequence (looked up)

[5] = biological target: Raf (Raf-1), endogenous, in extracts of mouse cells (3DO cells, thymocytes, T cells of spleen and lymph nodes) (mouse) (UniProt Q99N57); test: GST pull-down from 3DO whole cell extracts, Western blot
[6] = biological target: Raf (Raf-1), endogenous, in extracts of mouse cells (3DO cells, thymocytes, T cells of spleen and lymph nodes) (mouse) (UniProt Q99N57); test: GST pull-down from 3DO cell extracts (DEX treated or untreated), Western blot
[7] = biological target: human Raf expressed from pUSEamp-Raf in COS-7 cells (human) (UniProt P04049); test: co-immunoprecipitation from transfected COS-7 lysates with α-Myc, Western blot with α-Raf
[8] = biological target: human Raf expressed from pUSEamp-Raf in COS-7 cells (human) (UniProt P04049); test: co-immunoprecipitation from transfected COS-7 lysates, Western blot
[9] = biological target: GST-Raf-RBD, GST fusion protein comprising the Ras Binding Domain of human Raf (Raf-RBD, residues 1-149) (human) (UniProt P04049); test: competition in GST pull-down: increasing amount of GILZ against Ras of COS-7 extracts on GST-Raf-RBD; Western blot
[10] = biological target: Raf (Raf-1), endogenous, in extracts of mouse cells (3DO cells, thymocytes, T cells of spleen and lymph nodes) (mouse) (UniProt Q99N57); test: co-immunoprecipitation from murine thymocyte lysates with α-Raf, Western blot with α-GILZ

- binding [1]: binds
- binding [2]: binds
- binding [3]: binds
- binding [4]: binds
Molecule: GST-Raf-RBD, GST fusion protein comprising the Ras Binding Domain of human Raf (Raf-RBD, residues 1-149) (from UniProt P04049 1-149)

- binding [5]: binds
- binding [6]: binds
B1: Glutathione S-transferase GILZ fusion protein (GST-GILZ), containing entire mouse GILZ (other, UniProt Q9Z2S7 1-137, looked up)
chain: T1 sequence (looked up)
notes: range 1-137; Immobilised on glutathione Sepharose beads; Prepared as in Ayroldi E et al., 2001; not shown: Glutathione S-transferase (GST) encoded by the pGEX-4T2 plasmid (Pharmacia)

- binding [7]: binds
- binding [8]: binds
B2: Myc-tagged GILZ (full-length mouse GILZ expressed from pcDNA3.1/Myc-His in COS-7 cells) (protein, UniProt Q9Z2S7 1-137, looked up, not shown: small tags and cut ends)
chain: T1 sequence (looked up)

- binding [9]: binds
B3: E. coli expressed mouse GILZ (protein, UniProt Q9Z2S7 1-137, looked up)
chain: T1 sequence (looked up)

B4: GILZ, endogenous, in whole cell lysates of murine thymocytes (DEX-treated or untreated) (other, mouse, UniProt Q9Z2S7 1-137, looked up)
chain: T1 sequence (looked up)
notes: also called mGILZ
- binding [10]: binds
